No constants are given. Whether binding was seen depends on the method and setting. In cells and extracts the contact can be indirect. Binding calls can cover weak binding; strength is not graded here.
Molecular target: T1, porcine Gasdermin A (pGSDMA), full-length recombinant protein (pig) (UniProt F1RXA6)
T1 sequence: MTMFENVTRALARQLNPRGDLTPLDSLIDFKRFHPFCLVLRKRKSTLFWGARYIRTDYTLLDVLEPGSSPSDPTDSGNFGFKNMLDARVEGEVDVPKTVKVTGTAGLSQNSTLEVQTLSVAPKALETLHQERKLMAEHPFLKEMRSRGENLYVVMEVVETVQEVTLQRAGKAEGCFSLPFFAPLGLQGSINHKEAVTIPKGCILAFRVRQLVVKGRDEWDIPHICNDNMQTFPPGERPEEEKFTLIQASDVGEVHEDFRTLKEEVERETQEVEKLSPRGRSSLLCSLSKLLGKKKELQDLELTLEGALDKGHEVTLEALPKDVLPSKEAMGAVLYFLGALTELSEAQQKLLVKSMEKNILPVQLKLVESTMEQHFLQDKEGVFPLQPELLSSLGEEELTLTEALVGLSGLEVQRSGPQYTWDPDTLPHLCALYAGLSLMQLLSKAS
Assay: co-IP; full-length pGSDMA and WT 3C recombinant proteins mixed in vitro (cell-free system); immunoprecipitated with rabbit anti-HA monoclonal antibody; both purified

“Seneca Valley Virus (SVV) 3C protease, wild-type recombinant protein (enzyme)” was tested, and the binding was “binds”.

— publication PMC11481571
